# Test results reported in patent US4774232A, “Bile-substituting method of treatment for the promotion of fat digestion” (Chinoin Gyogyszer Es Vegyeszeti Termak Ek Gyara Rt, priority 1985, dated 1988).
# The name of at least one read-out is uncertain.
# System: lipase (pancreas suspension)
# Experiment: In vitro enzymatic hydrolysis of triglycerides: olive oil, pancreas suspension
# Type: biochemical
# Settings: series Bile I, versus control
# Experimental: In an aqueous medium, lipase is capable to split triglycerides only at an extraordinarily low rate. Therefore, an organic solvent should be added to the system, by which the solubility of the triglycerides is increased, but the enzyme activity is diminished. Alternatively, some type of detergent, suitably bile has to be used. The effect of bile was compared to that of DIMEB at 37° C. in such a way that, the quantity of the formed free fatty acids in the samples taken from the reaction mixture at various intervals was titrated by using sodium hydroxide solution. The composition of the reaction mixture was as follows:
# a total volume of 1.5 ml contained 4 μmoles of the substrate (triolein or olive oil), 10 mg of bovine serum albumin, 75 μmoles of sodium chloride, 50 μmoles of a phosphate buffer solution (pH 7.4) and 0.25 ml of an enzyme solution. A lipase of the Serva Company (in an 1 mg/10 ml solution) or a pancreas powder (0.5 g was suspended in 10 ml of distilled water and the slightly opalescent solution obtained after filtration was used) were employed as enzyme preparations.
# The composition of the solutions to be tested were as follows:
# 0.5 ml of buffer+10 mg of serum albumin+3.54 mg of substrate+0.25 ml of enzyme solution plus
# (a) 0.25 ml of diluted bile+0.50 ml of distilled water; or
# (b) 50 mg of dimethyl-β-cyclodextrin dissolved in 0.75 ml of water; or […]
structure (smiles),measurement,value
"COC[C@H]1O[C@@H]2O[C@H]3[C@H](O)[C@@H](OC)[C@@H](O[C@H]4[C@H](O)[C@@H](OC)[C@@H](O[C@H]5[C@H](O)[C@@H](OC)[C@@H](O[C@H]6[C@H](O)[C@@H](OC)[C@@H](O[C@H]7[C@H](O)[C@@H](OC)[C@@H](O[C@H]8[C@H](O)[C@@H](OC)[C@@H](O[C@H]1[C@H](O)[C@H]2OC)O[C@@H]8COC)O[C@@H]7COC)O[C@@H]6COC)O[C@@H]5COC)O[C@@H]4COC)O[C@@H]3COC [DIMEB, heptakis(2,6-di-O-methyl)-β-cyclodextrin]",Increase in the reaction rate,7.4 times
